The target in one experiment is MMP9 (UniProt P14780). The experiment in a line: ELISA heatmap, shade read against the OD630 scale 0-4, mean of two assays; mAb 100 nM per paragraph 311. A general note: An ELISA detects its analyte on a solid surface through an enzyme-linked reagent.
Experiment [1] deals with MMP1 (UniProt P03956). Described as above.
The target in another experiment is MMP7 (UniProt P09237). The experiment is described as above.
A further experiment deals with MMP2. The description is as above.
The next experiment addresses KLK4. Described as above.
The target of the next experiment is MMP13. The description is as above.
The next experiment deals with MMP3 (UniProt P08254). The experiment in a line: ELISA on recombinant MMPs.
Experiment [2] deals with MMP1 (UniProt P03956). The experiment in a line: dose-response ELISA, mAb 100-0.1 nM, OD630.

By UniProt entry, the sequences of proteins in these tests, tags left out. Where a name states a change or a piece, a line headed by the entry shows the natural chain unless it says otherwise.
UniProt P14780: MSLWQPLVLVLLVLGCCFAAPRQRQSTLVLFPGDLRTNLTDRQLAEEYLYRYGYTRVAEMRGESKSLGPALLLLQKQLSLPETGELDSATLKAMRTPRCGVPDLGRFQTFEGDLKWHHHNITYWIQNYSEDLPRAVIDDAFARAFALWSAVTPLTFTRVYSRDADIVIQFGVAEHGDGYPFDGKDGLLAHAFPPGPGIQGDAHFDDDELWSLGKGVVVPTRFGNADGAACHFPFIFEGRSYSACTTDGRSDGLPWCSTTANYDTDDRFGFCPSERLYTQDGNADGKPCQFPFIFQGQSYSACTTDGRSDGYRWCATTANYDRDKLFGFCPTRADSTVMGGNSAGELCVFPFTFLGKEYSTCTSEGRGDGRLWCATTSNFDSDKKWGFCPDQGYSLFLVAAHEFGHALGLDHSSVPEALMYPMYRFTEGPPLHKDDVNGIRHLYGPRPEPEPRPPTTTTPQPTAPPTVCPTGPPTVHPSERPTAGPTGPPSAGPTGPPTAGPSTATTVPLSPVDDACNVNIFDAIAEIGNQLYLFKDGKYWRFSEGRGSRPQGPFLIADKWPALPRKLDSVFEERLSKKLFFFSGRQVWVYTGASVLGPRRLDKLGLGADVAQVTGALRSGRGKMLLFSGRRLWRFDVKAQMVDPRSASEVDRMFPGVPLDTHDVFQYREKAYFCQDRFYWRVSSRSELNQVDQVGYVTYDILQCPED
UniProt P03956: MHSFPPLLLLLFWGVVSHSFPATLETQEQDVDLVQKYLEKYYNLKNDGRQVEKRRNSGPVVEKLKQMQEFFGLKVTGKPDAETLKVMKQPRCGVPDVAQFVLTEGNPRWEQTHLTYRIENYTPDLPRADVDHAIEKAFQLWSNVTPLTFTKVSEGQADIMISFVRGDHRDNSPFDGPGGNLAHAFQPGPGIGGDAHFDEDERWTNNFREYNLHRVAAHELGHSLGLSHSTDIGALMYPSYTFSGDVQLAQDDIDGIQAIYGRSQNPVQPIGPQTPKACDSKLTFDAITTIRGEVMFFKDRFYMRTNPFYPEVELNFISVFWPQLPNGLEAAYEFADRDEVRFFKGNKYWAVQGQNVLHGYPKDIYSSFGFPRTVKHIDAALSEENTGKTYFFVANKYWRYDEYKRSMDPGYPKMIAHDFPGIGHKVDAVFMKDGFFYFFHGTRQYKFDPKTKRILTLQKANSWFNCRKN
UniProt P09237: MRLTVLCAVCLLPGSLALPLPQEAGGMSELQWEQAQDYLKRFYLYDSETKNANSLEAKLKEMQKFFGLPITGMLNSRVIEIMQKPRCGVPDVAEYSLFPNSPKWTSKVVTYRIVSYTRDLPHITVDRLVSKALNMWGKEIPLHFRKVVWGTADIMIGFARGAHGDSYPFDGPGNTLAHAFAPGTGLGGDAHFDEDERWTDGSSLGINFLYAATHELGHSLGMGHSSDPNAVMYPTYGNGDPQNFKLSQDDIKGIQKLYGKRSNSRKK
UniProt P08254: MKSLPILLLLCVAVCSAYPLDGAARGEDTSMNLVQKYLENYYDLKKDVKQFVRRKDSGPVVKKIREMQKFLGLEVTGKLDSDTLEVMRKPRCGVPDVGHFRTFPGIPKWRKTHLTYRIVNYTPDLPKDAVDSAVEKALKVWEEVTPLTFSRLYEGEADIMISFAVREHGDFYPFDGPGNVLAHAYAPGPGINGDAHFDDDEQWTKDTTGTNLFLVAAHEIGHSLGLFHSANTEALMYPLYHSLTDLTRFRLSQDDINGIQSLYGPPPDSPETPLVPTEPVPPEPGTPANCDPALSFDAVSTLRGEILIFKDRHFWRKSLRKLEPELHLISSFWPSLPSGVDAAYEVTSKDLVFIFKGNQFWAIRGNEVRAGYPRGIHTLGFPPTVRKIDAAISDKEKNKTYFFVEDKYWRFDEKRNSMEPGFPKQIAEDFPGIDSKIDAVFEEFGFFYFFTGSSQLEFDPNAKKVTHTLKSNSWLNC

Results are given in words; binding and its absence hold for the method and conditions named. For some of these results: A result given as binding can be weak or reduced; the word gives no strength.

B1: T30 (antibody, V domains shown)
VH: EVQLVESGGGVLRPGESLRLSCVASGFTFEDYGMSWVRQVPGKGLEWVSGINWNGGSTRYADSVKGRFTISRDNANNSLYLQMNSLRAEDTALYHCARDKAIQGALMVYAMRGRWFDPWGQGTLVTVSS
VL: QAVVTQEPSLTVSPGGTVTLTCGSSTGAVTSGHYPYWFQQKPGQAPRTLIYDTSDRHSWTPARFSGSLRGGKAALTLSGAQPEDEADYYCFLSYNGARVFGGGTKLTVL
As to B1, the binding entry with MMP9, in the experiment with MMP1 [1], with MMP7, with MMP2, with KLK4 and with MMP13 was “binds” in each case.

B2: T7 (antibody)
heavy: QVQLVESGGGVVQPGRSLKLSSVASGFIFNMYGMHWVRQAPGKGLEWVAVISYDGTKEFYADSVKGRFAISRDDSKNTLSLQMNSLRPEDTAVYYSARSPSGHALDLWGQGTVVTVSS
light: DIVMTQSPLSLPVTPGEPASISCKSSQSLLLSNGYNYLDWYLQKPGQSPQLLITLASDRASGVPDRFSGSGSGTELQLKIGRVEAEDVGVYYCMQGLQTPFTFGPGTKVEIK
Take B2: the binding entry in the experiment with MMP9, with MMP1 [1], with MMP7, with MMP2, with KLK4 and with MMP13 was “binds” in each case.

B3: T12 (antibody, human IgG1, V domains shown)
VH: EVQLVESGGGLVQPGGSLRLSCAASGFTFNNHDMHWVRQVTGKGLEWVSSIGNFGDTYYSGSVKGRFTISRQDAKNSLYLQMNRLRVGDTAVYYCARGRAVAGNPLDVWGKGTTVTVSS
VL: EIVMTQSPATLSVSPGETATLSCRANQTLYNNLAWYQQKPGQAPRLLIYSGSTRATGIPARFSGSGSGTEFSLTISSLQSEDFAVYYCQHYTPWPPYTFGQGTKVDFK
Take B3: the binding entry in the experiment with MMP1 [1] was “binds”; in the experiment with MMP2, “binds”; with KLK4, “binds”; with MMP13 it was “binds”; with MMP3, “no binding”; in the experiment with MMP1 [2] it was “binds”.

B4: T19 (antibody, V domains shown)
VH: EVQLLESGGGLVQPGGSLRLSCAASGFTFDNYGMSWVRQAPGKGLEWVSVISSGGVGTYYADSVKGRFIISRDNAKNTLYLQMNSLRAEDTAVYYCAKDLLRYESSGYSPWGQGTLVTVSS
VL: EIVLTQSPATLSLSPGDRATLSCRASQSVNTYLAWYQHKPGQAPRLLIYDASKRATGIPARFSGSGSGTDFTLTISSLEPEDFAVYYCQQRANRPPLTFGGGTKVEIK
In the case of B4, in the experiment with MMP13, the binding result is reported as “binds”.

B5: T10 (antibody, human IgG1, V domains shown)
VH: QVQLVQSGDEVKEPGASVKVSCKASGYSFTRYGITWVRLAPGQGLEWMGWISAYNGDTNLAQKFQGRVTMTTDTSTTTAYMEMRNLRSDDTAVYYCGRDTRYCSGAGCPRPSWYYYYMDVWGKGTTVTVSS
VL: DIQMTQSPSSLSASVGHRVTITCRASQTISNHLNWFQQKPGKAPKLLIYAASRLQTGVPSRFSGSGSGTDFTLTISSLQPEDFATYFCQQTYDIPPYTFGQGTKLEIK
For B5, the binding result with MMP9, with MMP1 [1], in the experiment with MMP7, with MMP2, with KLK4 and with MMP13 was “binds” throughout. Besides, in the experiment with MMP1 [2], the binding result is given as “binds”.

B6: T17 (antibody, V domains shown)
VH: EVQLVESGGGLVQPGGSLTLSCTASGFTYFGFAMTWVRQPPGKGLEWISSINLLSGTTYYVDSVKGRFTISRDNSKNTVFLQMKGLTAEDTAVYYCAKVGATQDLHYFDFWGQGTLVTVSS
VL: DIQMTQSPSTLSASVGDRVTITCRASQSVYRWLAWYQQKPGEAPKLLVYGAFSLQSGVPPRFSGSGYGTEFTLTISSLQPDDFATYYCQQYNSHSTFGQGTKVEVK
For B6, the binding result in the experiment with MMP9 and in the experiment with MMP1 [1] was “binds” each time.

B7: T3 (antibody, human IgG1, V domains shown)
VH: EVQLVESGGGLVQPGGSLRLSCAASGFTYFSYAMTWVRQAPGKGLEWVSSVNVRVGTSYYADSVKGRFTISSDISKNTVFLQMNSLRADDTAIYYCATVGATQDLRYFDFWGQGTLVTVSS
VL: DIQMTQSPSTLSASVGDRVTITCRASQSVYRLLAWYQQKPGKAPKLLIYDAFKLKSGVPPRFSGSGSGTEFTLTISSLQTDDFASYYCQQYNSYSTFGQGTKVEVK
Turning to B7, the binding result in the experiment with MMP9, in the experiment with MMP1 [1], with MMP7, with MMP2, in the experiment with KLK4 and with MMP13 was “binds” throughout. In the experiment with MMP1 [2], the binding result was “binds”.

B8: T11 (antibody, human IgG1, V domains shown)
VH: QVQLVESGGGVVQPGGSLRLSCGASGFTFSRYGMHWVRQAPGKGLEWVSFIRYDGTEKYYADSVKGRFTISRDNSKNTLYLQMNSLRADDAAVYFCANPYITPPTNDYWGQGTLVTVSS
VL: DIQMTQSPSSLSASVGDKVTITCRASQDISNYLAWFQQKPGKVPKLLIYGASTLLSGVPSRFSGSQSGTNFTLIISSLQPEDVATYYCQKHNSAPWTFGQGTKVEIK
B8: the binding result in the experiment with MMP9, with MMP1 [1], with MMP7, in the experiment with MMP2, with KLK4 and with MMP13 was “binds” each time. In the experiment with MMP1 [2], the binding entry was “binds”.

B9: T2 (antibody, V domains shown)
VH: QVQLVQSGAEVKKPGASVNVSCKASGYNFKAYGVGWVRQAPGQGLEWMGWITPYNGKTNYAQKIQGRVTMTTDTSTTTAYMELRSLQPDDTAMYFCARTPAALASFDYWSQGTLVTVSS
VL: DIQMTQSPSTLSASVGDRVTITCRASQSISSWLAWYQQKAGKAPKLLIFDASTLQSGVPSRFSGSGSGTEFSLTISSLQPDDFATYYCQQYYSYSTFGQGTKVEIR
For B9, the binding result with MMP9, with MMP1 [1], with MMP2 and in the experiment with MMP13 was “binds” each time.

B10: T4 (antibody, V domains shown)
VH: QVQLVQSGGEVKKPGASAKVSCKTSGFTFTSYGISWVRQAPGQGLEWMGWINTYNGNTKYAQRLQGRVSMTTDTSTNTAYMELRSLRSDDTAVYYCARGQGRYGDYIYNHWGQGTLVIVSS
VL: DIQMTQSPSTLSASVGDRVTITCRASQIISSWVAWYQQRPGKAPKLLIFDASILESGVPSRFSGSATGTEFSLTISGLQPDDFATYYCQHYNDFPLSFGGGTKVEIK
For B10, the binding result in the experiment with MMP1 [1] was “binds”.

B11: T6 (antibody, V domains shown)
VH: QVQLQQSGPGLVKPSQTLSLTCAISGDSVSSNSAAWNWIRQSPSRGLEWLGRTYYRSRWYSDYAFSVRSRIIVKADTSRNLFSLQLNSMTPEDTAIYYCARDLGIAAADWFDSWGQGTLVTVSS
VL: EIVMTQSPATLSVSPGDRATLSCRASQSVSNRLAWYQQKPGQAPRLLIYDASTRATDIPARFSGSGSGTEFTLTISSLQSEDFAIYFCHQYHNWPGFGPGTKLEIK
On to B11, for which the binding entry with MMP9, with MMP1 [1], with MMP2 and in the experiment with MMP13 was “binds” in each case.

B12: T8 (antibody, human IgG1, V domains shown)
VH: QVQLQESGPGLVKPSETLSLSCAVSGGSIRGYSWSWIRQPPGKGLEWIADMLYTGTTTFNPSLKSRVTISVDTSKNQFSLKLTSVTAADTAVYYCARGPTVSGPIVVDYWGPGTLVTVSS
VL: DIQMTQSPSTLSASVGDRVTITCRASQSISTWLAWYQQKPGKAPKLLIYKASSLESGVPSRFSGSGSGTEFTLTISSLQPDDLATYYCQQYYNYGITFGPGTKVDIQ
On to B12, for which the binding entry in the experiment with MMP9, with MMP1 [1], in the experiment with MMP2, in the experiment with MMP13 and with MMP1 [2] was “binds” in each case.

B13: T1 (antibody, V domains shown)
VH: EVQLVESGGGLEQPGRSLRLSCAASGFSFGDNAMTWFRQAPGKGLEWVGIIRAKGYGGTTEYAASVKGRFTISRDDSKSIAFLQMNNVKVEDTGVYYCAKYASGWEVGFDPWGQGTLVTVSS
VL: AIQMTQSPSSLSASVGDRVTITCRASQFIRNDLGWYQQKPGRAPKLLIYAASGLHSGVPARFSGNGSATDFTLTITSLQPEDFATYYCLQDYNFPWTFGQGTKVEIK
As to B13, the binding result in the experiment with MMP1 [1] and in the experiment with MMP13 was “binds” in each case.

B14: T27 (antibody, V domains shown)
VH: EVQLVESGGGLVQPGRSLRLSCAASGFTFETYAMHWVRQAPGKGLEWVSGISFNSRSRGYADAVRGRFTISRDNSKNSLFLEMNSLRPEDTALYYCARDEKWGTPSDWGQGVLVTVSS
VL: QSALTQPASVSRSPGQSITISCTGTKNDVGSYNHVSWYQQHPGKGPKLIIYEVNKRPSGVSDRFSGSKSGNTASLTISGLQAEDEAYYSCSSYAPMTTLVFGGGTKLTVL
As for B14, the binding entry with MMP9, in the experiment with MMP1 [1], in the experiment with MMP7, in the experiment with MMP2, with KLK4 and with MMP13 was “binds” each time.

Source of the values: US20240166768A1.
